# PubChem BioAssay AID504834 (National Center for Advancing Translational Sciences (NCATS), 2011)
# Among all 320,000 compounds or so, about 22,000 (6.9%) were called active. Inconclusive means that the source gave no clear call. Such entries were picked first, then a sample of the others. Calls come from the whole dose curve; as a rule, active = well fitted inhibition curve with a large enough effect; inconclusive = small, poorly fitted or top-dose-only effect, or another doubt; inactive = no such curve, though single readings can be large or run the other way. A potency beside an inconclusive call is a rough fit, not a confirmed value. A structure can be active in one record and inactive in another.
# Test: Primary qHTS for delayed death inhibitors of the malarial parasite plastid, 96 hour incubation
# Conditions: P. falciparum luciferase reporter growth; series mostly up to 28.7 µM; activity change, negative = inhibition: at the top concentration
# Procedure, shortened: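 Two-generation exposure (96 h) targets delayed-death phenotype. Reporter parasites carrying integrated firefly luciferase, in red cells at 2% hematocrit and 0.05% parasitemia final, kept at 37 C, 5% CO2; luminescence loss indicates inhibition.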
# % is set by controls: 0 for no effect and ±100 for the full control effect; potency is the fitted concentration of half-maximal effect.
SMILES,Potency,"activity change, negative = inhibition"
CN(C)S(=O)(=O)c1ccc(Cl)c(NC(=O)CSc2nc3ccccc3c(=O)n2CCCN2CCOCC2)c1,active: 10.4 µM,
Cc1ccc(N=C2NC(=O)/C(=C/c3cccn3C)S2)cc1,"inconclusive: 18.5 µM [inhibitor, single point]",
CCCCC(=O)Nc1ccc(S(=O)(=O)N2CCCCC2c2cccnc2)cc1 (stereo unspecified),"inconclusive: 10.4 µM [inhibitor, single point]",
CCOC(=O)c1ccc(N=c2sc(C(=O)OC)cc(=O)n2CCCN2CCOCC2)cc1,active: 4.65 µM,
O=C(/C=C/c1ccc(S(=O)(=O)NCc2ccco2)cc1)NCc1ccccc1Cl,"inconclusive: 18.5 µM [inhibitor, single point]",
O=C(C[n+]1cc(-c2ccccc2)n2c1CCC2)c1cccs1,"inconclusive: 1.47 µM [inhibitor, full curve, poor fit]",
O=C(OCC(=O)N1CCN(C(=O)c2ccco2)CC1)c1cc(-c2ccc(Cl)c(Cl)c2Cl)nc2ccccc12,"inconclusive: 20.8 µM [inhibitor, partial curve, poor fit]",
Cc1cc(NC(=O)c2ccc3c(c2)OCCO3)ccc1NC(=O)c1cc2ccccc2o1,"inconclusive: 1.85 µM [inhibitor, partial curve, poor fit]",
COC(=O)c1ccc(C2c3c(oc4ccccc4c3=O)C(=O)N2CCCN2CCOCC2)cc1 (stereo unspecified),"inconclusive: 14.7 µM [inhibitor, single point]",
Brc1ccc(C=Nc2ccc3c(c2)OCCOCCOCCO3)s1,,inactive: 324%
CC(C)(C)c1ccc(S(=O)(=O)NNC(=O)c2cc3ccccc3[nH]2)cc1,,inactive: 179%
Cc1c(S(=O)(=O)c2ccccn2)c(N)n(Cc2ccccc2Cl)c1C,"inconclusive: 18.5 µM [inhibitor, single point]",
Cc1ccc2[nH]c(=O)c(NC(N)=S)nc2c1,"inconclusive: 0.329 µM [inhibitor, full curve, poor fit]",
O=C(NCc1nc(-c2ccc(C(F)(F)F)cc2)no1)Nc1ccc(OC(F)(F)F)cc1,,inactive: -8.82%
COc1ccc(OCCCC(=O)OCC(=O)Nc2nnc(-c3ccccc3)o2)cc1,"inconclusive: 10.4 µM [inhibitor, partial curve, poor fit]",
O=C(Nc1cnc2ccccc2c1)c1cccnc1,,inactive: -15.3%
CCCCn1c(=S)[nH]c2ccc(N3CCOCC3)cc2c1=O,active: 8.28 µM,
CC(=O)Nc1ccc(S(=O)(=O)Oc2ccc(C=O)cc2)cc1,"inconclusive: 18.5 µM [inhibitor, single point]",
CC(=O)NCCc1cc2ccc(C)c(C)c2[nH]c1=O,,inactive: 20.3%
COCCN1CCN(Cc2nc(Cc3ccc(OC)c(OC)c3)no2)CC1,,inactive: -20%
Cc1ccc(C)c(NC(=S)NC(NC(=O)N(C)C)C(Cl)(Cl)Cl)c1 (stereo unspecified),"inconclusive: 18.5 µM [inhibitor, single point]",
Cc1cc(S(=O)(=O)NCCCN2CCOCC2)c(Cl)cc1Cl,,inactive: 58.1%
COc1ccc2c(c1)C(=O)N1[C@H]3c4cc(Br)ccc4OC[C@@H]3[C@H](c3ccccc3)[C@]1(C)C(=O)N2,active: 11.7 µM,
O=C(CN1C(=O)NC(Cc2c[nH]c3ccccc23)C1=O)Nc1cccc(S(=O)(=O)N2CCOCC2)c1 (stereo unspecified),active: 9.28 µM,

# An excerpt of these results, tab-delimited:
SMILES	Potency	activity change, negative = inhibition
Cc1cc(NC(=O)c2ccc3c(c2)OCCO3)ccc1NC(=O)c1cc2ccccc2o1	inconclusive: 1.85 µM [inhibitor, partial curve, poor fit]	
Cc1c(S(=O)(=O)c2ccccn2)c(N)n(Cc2ccccc2Cl)c1C	inconclusive: 18.5 µM [inhibitor, single point]	
O=C(Nc1cnc2ccccc2c1)c1cccnc1		inactive: -15.3%

# (list continues)

SMILES,Potency,"activity change, negative = inhibition"
CC(=O)N1c2ccccc2C2CCCC[C@@H]21 (stereo partly specified),"inconclusive: 16.5 µM [inhibitor, single point]",
CCOC(=O)c1ccc(NC(=O)C(C)N2C(=O)c3ccccc3C2=O)cc1 (stereo unspecified),"inconclusive: 18.5 µM [inhibitor, single point]",
CCOC(=O)CSc1ccc(C(=O)NCCCN2CCOCC2)cc1[N+](=O)[O-],"inconclusive: 2.08 µM [inhibitor, full curve, poor fit]",
CC1CC(C)CN(S(=O)(=O)c2ccc(C(C)(C)C)cc2)C1 (stereo unspecified),,inactive: 3.03%
COc1cc2cc(C(=O)Nc3ccccc3)c(N)nc2cc1OC,"inconclusive: 16.5 µM [inhibitor, single point]",
O=C(C1CC1)N1CCc2cc(S(=O)(=O)NCCCN3CCCCC3)ccc21,"inconclusive: 13.1 µM [inhibitor, single point]",
COC(=O)C12CC3CC(C1)CC(n1cnc(Cl)n1)(C3)C2,"inconclusive: 10.4 µM [inhibitor, partial curve, poor fit]",
CCOC(=O)c1ccc(OCC2NCCc3cc(OC)c(OC)cc32)cc1 (stereo unspecified),,inactive: 54.5%
O=C(CC1NCCc2ccccc21)Nc1ccccc1 (stereo unspecified),,inactive: 29.6%
CCCNC(=O)C(Sc1ccccc1)c1ccccc1 (stereo unspecified),,inactive: -26%
CC1=CC(=O)[C@H]2C(C)(C)CCC[C@]2(C)[C@@]1(O)CO,"inconclusive: 7.38 µM [inhibitor, partial curve]",
CC(C)Oc1ccc(CNC(=O)C2CCN(C(=O)N3CCOc4ccccc43)CC2)cc1,"inconclusive: 1.17 µM [inhibitor, partial curve, poor fit]",
NC(=O)c1cc(S(=O)(=O)N2CCOCC2)ccc1N1CCCC1,,inactive: 16%
Cc1noc(C)c1CSCC(=O)Nc1ccc(S(C)(=O)=O)cc1,"inconclusive: 10.4 µM [inhibitor, single point]",
Cc1ccc(C)c(S(=O)(=O)NC2CCSC2=O)c1 (stereo unspecified),,inactive: 18.9%
O=C(CN1CCC(Cc2ccccc2)CC1)NCCc1ccc(F)cc1,"inconclusive: 14.7 µM [inhibitor, single point]",
COC(=O)C1=NN(C(=O)c2cccc(Cl)c2)C(O)(C(C)(C)C)C1 (stereo unspecified),,inactive: 39.1%
COc1cccc(-c2csc(N3CCN(C(=S)Nc4ccccc4OC)CC3)n2)c1,"inconclusive: 5.22 µM [inhibitor, single point]",
CCCCOc1ccc(C(=O)N2CCN(CC(=O)Nc3ccc(C)cc3)CC2)cc1OC,"inconclusive: 7.38 µM [inhibitor, partial curve]",
NC(=O)CSc1nc2ccccc2c(=O)n1CCc1ccccc1,active: 5.86 µM,
CN1C(=O)/C(=C2\SC(=S)N(CCCCCC(=O)O)C2=O)c2ccccc21,"inconclusive: 18.5 µM [inhibitor, single point]",
COc1cccc(-c2nc(CS(=O)(=O)CC(=O)Nc3ccc(C(C)=O)cc3)c(C)o2)c1,,inactive: 0.169%
CC1=NN(C(N)=S)C(=O)C1N=Nc1ccc(Br)cc1 (stereo unspecified),"inconclusive: 5.22 µM [inhibitor, partial curve]",
CC(C)(C)CN1CCN(Cc2cccnc2)CC1CCO (stereo unspecified),active: 10.4 µM,

# Looked up one by one from the list above, 3 records:
SMILES,Potency,"activity change, negative = inhibition"
Brc1ccc(C=Nc2ccc3c(c2)OCCOCCOCCO3)s1,,inactive: 324%
Cc1cc(S(=O)(=O)NCCCN2CCOCC2)c(Cl)cc1Cl,,inactive: 58.1%
COc1cccc(-c2csc(N3CCN(C(=S)Nc4ccccc4OC)CC3)n2)c1,"inconclusive: 5.22 µM [inhibitor, single point]",

# Additional structures:

SMILES,Potency,"activity change, negative = inhibition"
CC(=O)c1ccc(S(=O)(=O)N2CCc3ccccc3C2)cc1,"inconclusive: 11.7 µM [inhibitor, single point]",
O=C(NCCNC(=O)c1ccc([N+](=O)[O-])cc1)c1ccncc1,"inconclusive: 11.7 µM [inhibitor, single point]",
COc1ccc(C(C)=O)cc1CSc1nnc(-c2ccc(Cl)cc2)n1-c1ccccc1,active: 9.28 µM,
O=C(Nc1ccc(Br)cc1)c1cccc(N2C(=O)CCC2=O)c1,,inactive: 25%
Brc1ccccc1OCCCN1CCCC1,"inconclusive: 1.47 µM [inhibitor, partial curve, poor fit]",
CCN(CC)S(=O)(=O)c1ccc2nc(NC(=O)c3ccco3)sc2c1,,inactive: -2.14%
CCOC(=O)N1CCN(S(=O)(=O)c2c[nH]c(C(=O)OC)c2)CC1,,inactive: 76%
O=C(NNc1nc2c(F)cccc2s1)c1ccc(F)cc1,"inconclusive: 18.5 µM [inhibitor, single point]",
Cc1ccc(-n2nc3c(=O)n(CC(=O)NCCCc4ccccc4)nc(C)c3c2C)cc1,"inconclusive: 14.7 µM [inhibitor, partial curve, poor fit]",
COC(=O)c1cc(NC(=O)c2ccccc2F)cc(C(=O)OC)c1,,inactive: 60.8%
CN(C)Cc1c(C#N)c2ccccc2n1C,"inconclusive: 0.738 µM [inhibitor, full curve, poor fit]",
CSCCC(NC(=O)c1cncc(Br)c1)C(=O)O (stereo unspecified),"inconclusive: 0.465 µM [inhibitor, partial curve, poor fit]",
C=CCN1C(c2ccccc2)=CS/C1=C(/C#N)c1nnc(N2CCOCC2)n1-c1ccccc1,"inconclusive: 1.85 µM [inhibitor, partial curve, poor fit]",
Cc1ccccc1CN1CCC(CNC(=O)C2CCCN(c3ncnc4c3nc3n4CCCCC3)C2)CC1 (stereo unspecified),active: 6.57 µM,
O=C(NCC1(O)CCCCC1)C1CCC(=O)N(Cc2cccc(C(F)(F)F)c2)C1 (stereo unspecified),"inconclusive: 6.57 µM [inhibitor, partial curve, poor fit]",
COc1ccc2c(c1)CC[C@@H]1[C@@H]2CC[C@]2(C)C(=O)CC[C@@H]12,"inconclusive: 0.0657 µM [inhibitor, full curve, poor fit]",
C/C(=N\Nc1ccccc1[N+](=O)[O-])c1ccc(N2CCOCC2)cc1,,inactive: 141%
COc1ccccc1/C=C/C(=O)Nc1cccnc1Cl,,inactive: 47.4%
O=c1c2c3nc4ccccc4nc3n(/N=C/c3ccncc3)c2ncn1-c1ccccc1,"inconclusive: 0.0033 µM [inhibitor, full curve, poor fit]",
COc1ccc(/C=N/Nc2nc(N)cc(Cl)n2)cc1OC,"inconclusive: 8.28 µM [inhibitor, partial curve, poor fit]",
C[C@@H]1CN(C(=O)c2nc3ccc(Cl)cn3c2CN[C@H]2CCCCNC2=O)C[C@H](C)O1,"inconclusive: 18.5 µM [inhibitor, single point]",
CCOc1ccc(CN2CCN(Cc3cc4ccccc4o3)CC2CCO)cc1 (stereo unspecified),"inconclusive: 18.5 µM [inhibitor, single point]",
C=CCn1c(=O)c(C(=O)Nc2ccccc2OC)c(O)c2ccccc21,"inconclusive: 0.0928 µM [inhibitor, full curve, poor fit]",
